From patent US8258137B2, “Process for release of biologically active species from mesoporous oxide systems” (Katholieke Universiteit Leuven, priority 2008, dated 2012)
At least one compound was matched to its structure with a doubt left.

Legend:
Type in all cases: physicochemical
[1] = In vitro dissolution in simulated gastric fluid with or without SLS (Example 17)
[2] = In vitro release from itraconazole loaded SBA-15 at different drug loadings in simulated gastric fluid pH 1.2; conditions: every loading
[3] = pH shift and solvent (DMSO) shift induced supersaturation of itraconazole in FaSSIF; conditions: for actual itraconazole concentration directly after solvent shifting: DMSO spiking in FaSSIF; for extent of supersaturation (C/S): solvent shift, during at least 5 hours
[4] = 100 μM in SGF 1 h, then FaSSIF (theoretical 10 μM)

Structure (SMILES): CCC(C)n1ncn(-c2ccc(N3CCN(c4ccc(OCC5COC(Cn6cncn6)(c6ccc(Cl)cc6Cl)O5)cc4)CC3)cc2)c1=O (centres unmarked) [itraconazole]
- release of initial itraconazole amount after 5 minutes ([1]; SGF without SLS, non-sink): 2%
- release of initial itraconazole content after 5 minutes ([1]; SGF-SLS (0.1 M HCl, 0.5 wt. % SLS), sink conditions): 19%
- release of initial drug content after 30 minutes [2]: 36%
- itraconazole concentration immediately after pH shift to 6.5 ([3]; 100 μM in SGF 1 h, then 10-fold dilution into FaSSIF (theoretical 10 μM)): 7.85 μM
- itraconazole concentration 30 minutes after pH shift [3, 4]: 2.82 μM
- itraconazole concentration for the next 3 hours after pH shift [3, 4]: approximately 4 μM
- actual itraconazole concentration directly after solvent shifting ([3]; theoretical 20 μM): 8.62 µM
- actual itraconazole concentration directly after solvent shifting ([3]; theoretical 40 μM): 10.5 µM
- actual itraconazole concentration directly after solvent shifting ([3]; theoretical 75 μM): 12.2 µM
- extent of supersaturation created for the 75 μM condition ([3]; as restated in Example 10): about 25
- minimal extent of supersaturation (c/s) ([3]; pH shift method, 30 minutes after the pH shift, FaSSIF): 7.1
- extent of supersaturation (C/S) ([3]; theoretical 20 μM): at least 8.2
- extent of supersaturation (C/S) ([3]; theoretical 40 μM): ≥ 15.3
- extent of supersaturation (C/S) ([3]; theoretical 75 μM): ≥ 21.9
